According to publication PMC3775723:
No constants are given. Whether binding was seen depends on the method and setting. Binding seen in cells or lysates may run through a third protein. Tags and fused reporters may be left off the sequences shown.

Molecular target: T1, Flag-Ago (Archipelago), transfected S2 cells (Drosophila) (UniProt Q9VZF4)
T1 sequence: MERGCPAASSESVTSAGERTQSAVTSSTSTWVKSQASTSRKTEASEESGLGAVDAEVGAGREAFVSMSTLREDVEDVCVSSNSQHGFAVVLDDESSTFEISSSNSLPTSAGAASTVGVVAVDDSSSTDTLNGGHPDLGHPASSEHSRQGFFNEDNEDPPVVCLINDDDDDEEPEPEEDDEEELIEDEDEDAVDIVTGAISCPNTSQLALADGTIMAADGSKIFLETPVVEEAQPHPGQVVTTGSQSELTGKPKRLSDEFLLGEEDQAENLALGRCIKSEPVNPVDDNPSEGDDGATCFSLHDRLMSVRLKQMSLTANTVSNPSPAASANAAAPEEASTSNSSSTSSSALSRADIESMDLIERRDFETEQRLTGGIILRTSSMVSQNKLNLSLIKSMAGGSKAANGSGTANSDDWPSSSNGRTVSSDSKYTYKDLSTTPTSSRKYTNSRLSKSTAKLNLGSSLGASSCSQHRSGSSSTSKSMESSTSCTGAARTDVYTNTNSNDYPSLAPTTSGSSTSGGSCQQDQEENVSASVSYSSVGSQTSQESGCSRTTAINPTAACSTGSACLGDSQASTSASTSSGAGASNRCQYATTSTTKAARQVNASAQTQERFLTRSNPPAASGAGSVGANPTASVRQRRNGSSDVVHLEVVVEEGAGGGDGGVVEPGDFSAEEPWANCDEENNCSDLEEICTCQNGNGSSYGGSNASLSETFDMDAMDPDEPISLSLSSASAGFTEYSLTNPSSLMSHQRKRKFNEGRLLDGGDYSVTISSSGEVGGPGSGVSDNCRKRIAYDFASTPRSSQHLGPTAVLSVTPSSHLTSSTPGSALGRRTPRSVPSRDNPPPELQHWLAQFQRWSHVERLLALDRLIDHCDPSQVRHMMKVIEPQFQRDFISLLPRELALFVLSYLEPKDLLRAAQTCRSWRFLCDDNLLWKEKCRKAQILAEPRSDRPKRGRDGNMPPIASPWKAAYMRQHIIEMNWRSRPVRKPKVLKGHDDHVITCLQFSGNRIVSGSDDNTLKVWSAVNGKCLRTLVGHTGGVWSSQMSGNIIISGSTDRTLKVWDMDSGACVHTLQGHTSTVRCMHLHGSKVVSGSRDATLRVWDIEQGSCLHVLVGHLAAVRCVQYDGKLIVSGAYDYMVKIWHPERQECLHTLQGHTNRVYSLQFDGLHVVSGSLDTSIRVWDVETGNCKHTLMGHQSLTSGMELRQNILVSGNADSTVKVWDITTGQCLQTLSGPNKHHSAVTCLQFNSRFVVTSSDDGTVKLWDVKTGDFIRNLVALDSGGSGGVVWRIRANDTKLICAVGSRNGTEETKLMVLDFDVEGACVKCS
Test: co-IP; S2 cells co-transfected with tagged Akt (Myc or Flag) and a tagged F-box protein (Flag-Slimb, Myc-Slimb^ΔWD40 or Flag-Ago); lysate immunoprecipitated, protein A/G beads, Western blot

- binding: no binding
B1: Myc-Akt, transfected S2 cells (protein, UniProt Q8INB9 1-611)
chain: MNYLPFVLQRRSTVVASAPAPGSASRIPESPTTTGSNIINIIYSQSTHPNSSPTSGSAEKFSWQQSWPSRTSAAPTHDSGTMSINTTFDLSSPSVTSGHALTEQTQVVKEGWLMKRGEHIKNWRQRYFVLHSDGRLMGYRSKPADSASTPSDFLLNNFTVRGCQIMTVDRPKPFTFIIRGLQWTTVIERTFAVESELERQQWTEAIRNVSSRLIDVGEVAMTPSEQTDMTDVDMATIAEDELSEQFSVQGTTCNSSGVKKVTLENFEFLKVLGKGTFGKVILCREKATAKLYAIKILKKEVIIQKDEVAHTLTESRVLKSTNHPFLISLKYSFQTNDRLCFVMQYVNGGELFWHLSHERIFTEDRTRFYGAEIISALGYLHSQGIIYRDLKLENLLLDKDGHIKVADFGLCKEDITYGRTTKTFCGTPEYLAPEVLDDNDYGQAVDWWGTGVVMYEMICGRLPFYNRDHDVLFTLILVEEVKFPRNITDEAKNLLAGLLAKDPKKRLGGGKDDVKEIQAHPFFASINWTDLVLKKIPPPFKPQVTSDTDTRYFDKEFTGESVELTPPDPTGPLGSIAEEPLFPQFSYQGDMASTLGTSSHISTSTSLASMQ
